According to publication PMC7862700:
The list shows a part of the results, in another mix than the full data. At the low end of the ranking, values are background and their order means little.

Each sequence was assayed against SPI1 (UniProt P17947) (assay: DAPPL (digital affinity profiling via proximity ligation, sequencing)). Conditions: 10 mM Tris-HCl pH 7.5, 50 mM NaCl, 1 mM DTT, 4% glycerol, room temperature, 30 min; GST-TFs on glutathione beads, 16-mer random dsDNA library, 0.1% …; high values mean tight binding; double strand, one strand shown; scale: fold enrichment (6-mer frequency, TF over GST control).

Sequence | binding signal
ACGTGA | 0.251
AAGACA | 0.946
CGTCGG | 0.415
AGAGAC | 0.499
AGTCAC | 0.859
GGCGTG | 0.347
TACCGT | 0.661
CAGTCA | 0.515
CGGGGC | 0.575
GGGCCG | 0.627
GACGAA | 0.847
ATCAGT | 0.779
CACAGT | 0.69
TTCGGA | 0.719
CACGGG | 0.701
GGCGCC | 0.655
GAGCAG | 0.539
ACCAGC | 0.858
AGGCGA | 0.502
TGTCGT | 0.824

Sequence | binding signal
GTCGCG | 0.694
TGGAGT | 0.498
GACGTC | 0.757
GAGCCG | 0.404
GGGTTG | 0.803
GGGTGA | 0.663
TGGACG | 0.823
CGGCCA | 0.798
GATGAG | 0.867
ACGGGC | 0.74
AGACCA | 0.595
GAGGAT | 0.554
CGAGCG | 0.974
GACAGC | 0.748
GTCAAT | 0.851
TGCAGT | 0.771
GCGGGT | 0.575
GACGAG | 0.478
AGCCGA | 0.776

Quoted from the results shown for reference:
Sequence | binding signal
GATGAG | 0.867
ACGGGC | 0.74
AGACCA | 0.595
GAGGAT | 0.554
CGAGCG | 0.974
GACAGC | 0.748
GTCAAT | 0.851
TGCAGT | 0.771
GCGGGT | 0.575
GACGAG | 0.478
